# Laboratory results reported in the supplement of paper PMC10849652.
# Amino acid sequences for entries named in this document (tags omitted). A change or cut given only in a name is not applied to a line headed by its entry.
# UniProt O00560: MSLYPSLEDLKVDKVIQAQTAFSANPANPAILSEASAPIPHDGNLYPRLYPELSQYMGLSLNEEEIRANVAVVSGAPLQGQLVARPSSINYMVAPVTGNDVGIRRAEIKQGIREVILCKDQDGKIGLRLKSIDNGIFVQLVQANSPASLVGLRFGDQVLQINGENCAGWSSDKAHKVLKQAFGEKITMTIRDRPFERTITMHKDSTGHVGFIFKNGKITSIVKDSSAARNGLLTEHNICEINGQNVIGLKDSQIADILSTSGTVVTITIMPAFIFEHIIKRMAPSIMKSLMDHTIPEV
# UniProt Q9UPU9: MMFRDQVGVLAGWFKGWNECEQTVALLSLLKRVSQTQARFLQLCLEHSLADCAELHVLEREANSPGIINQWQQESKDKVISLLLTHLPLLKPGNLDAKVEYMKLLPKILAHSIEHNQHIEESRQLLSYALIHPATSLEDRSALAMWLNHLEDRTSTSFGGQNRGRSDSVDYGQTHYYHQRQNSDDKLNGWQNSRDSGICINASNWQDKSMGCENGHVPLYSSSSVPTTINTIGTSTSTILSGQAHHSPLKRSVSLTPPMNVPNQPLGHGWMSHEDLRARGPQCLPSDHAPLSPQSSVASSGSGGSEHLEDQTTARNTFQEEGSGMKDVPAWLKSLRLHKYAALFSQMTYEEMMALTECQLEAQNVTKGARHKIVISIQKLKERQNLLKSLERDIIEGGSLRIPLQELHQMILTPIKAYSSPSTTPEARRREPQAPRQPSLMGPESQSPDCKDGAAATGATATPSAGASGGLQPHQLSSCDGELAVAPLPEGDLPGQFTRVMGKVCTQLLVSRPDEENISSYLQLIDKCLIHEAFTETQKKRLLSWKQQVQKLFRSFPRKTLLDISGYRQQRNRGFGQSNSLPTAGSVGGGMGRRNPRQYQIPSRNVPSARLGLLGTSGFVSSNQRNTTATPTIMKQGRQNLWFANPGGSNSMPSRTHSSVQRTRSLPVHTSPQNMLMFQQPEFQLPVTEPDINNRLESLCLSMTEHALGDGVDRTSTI
# UniProt O95969: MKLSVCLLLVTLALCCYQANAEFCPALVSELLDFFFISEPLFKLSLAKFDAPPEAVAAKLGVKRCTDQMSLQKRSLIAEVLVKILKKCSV
# UniProt Q86WG5: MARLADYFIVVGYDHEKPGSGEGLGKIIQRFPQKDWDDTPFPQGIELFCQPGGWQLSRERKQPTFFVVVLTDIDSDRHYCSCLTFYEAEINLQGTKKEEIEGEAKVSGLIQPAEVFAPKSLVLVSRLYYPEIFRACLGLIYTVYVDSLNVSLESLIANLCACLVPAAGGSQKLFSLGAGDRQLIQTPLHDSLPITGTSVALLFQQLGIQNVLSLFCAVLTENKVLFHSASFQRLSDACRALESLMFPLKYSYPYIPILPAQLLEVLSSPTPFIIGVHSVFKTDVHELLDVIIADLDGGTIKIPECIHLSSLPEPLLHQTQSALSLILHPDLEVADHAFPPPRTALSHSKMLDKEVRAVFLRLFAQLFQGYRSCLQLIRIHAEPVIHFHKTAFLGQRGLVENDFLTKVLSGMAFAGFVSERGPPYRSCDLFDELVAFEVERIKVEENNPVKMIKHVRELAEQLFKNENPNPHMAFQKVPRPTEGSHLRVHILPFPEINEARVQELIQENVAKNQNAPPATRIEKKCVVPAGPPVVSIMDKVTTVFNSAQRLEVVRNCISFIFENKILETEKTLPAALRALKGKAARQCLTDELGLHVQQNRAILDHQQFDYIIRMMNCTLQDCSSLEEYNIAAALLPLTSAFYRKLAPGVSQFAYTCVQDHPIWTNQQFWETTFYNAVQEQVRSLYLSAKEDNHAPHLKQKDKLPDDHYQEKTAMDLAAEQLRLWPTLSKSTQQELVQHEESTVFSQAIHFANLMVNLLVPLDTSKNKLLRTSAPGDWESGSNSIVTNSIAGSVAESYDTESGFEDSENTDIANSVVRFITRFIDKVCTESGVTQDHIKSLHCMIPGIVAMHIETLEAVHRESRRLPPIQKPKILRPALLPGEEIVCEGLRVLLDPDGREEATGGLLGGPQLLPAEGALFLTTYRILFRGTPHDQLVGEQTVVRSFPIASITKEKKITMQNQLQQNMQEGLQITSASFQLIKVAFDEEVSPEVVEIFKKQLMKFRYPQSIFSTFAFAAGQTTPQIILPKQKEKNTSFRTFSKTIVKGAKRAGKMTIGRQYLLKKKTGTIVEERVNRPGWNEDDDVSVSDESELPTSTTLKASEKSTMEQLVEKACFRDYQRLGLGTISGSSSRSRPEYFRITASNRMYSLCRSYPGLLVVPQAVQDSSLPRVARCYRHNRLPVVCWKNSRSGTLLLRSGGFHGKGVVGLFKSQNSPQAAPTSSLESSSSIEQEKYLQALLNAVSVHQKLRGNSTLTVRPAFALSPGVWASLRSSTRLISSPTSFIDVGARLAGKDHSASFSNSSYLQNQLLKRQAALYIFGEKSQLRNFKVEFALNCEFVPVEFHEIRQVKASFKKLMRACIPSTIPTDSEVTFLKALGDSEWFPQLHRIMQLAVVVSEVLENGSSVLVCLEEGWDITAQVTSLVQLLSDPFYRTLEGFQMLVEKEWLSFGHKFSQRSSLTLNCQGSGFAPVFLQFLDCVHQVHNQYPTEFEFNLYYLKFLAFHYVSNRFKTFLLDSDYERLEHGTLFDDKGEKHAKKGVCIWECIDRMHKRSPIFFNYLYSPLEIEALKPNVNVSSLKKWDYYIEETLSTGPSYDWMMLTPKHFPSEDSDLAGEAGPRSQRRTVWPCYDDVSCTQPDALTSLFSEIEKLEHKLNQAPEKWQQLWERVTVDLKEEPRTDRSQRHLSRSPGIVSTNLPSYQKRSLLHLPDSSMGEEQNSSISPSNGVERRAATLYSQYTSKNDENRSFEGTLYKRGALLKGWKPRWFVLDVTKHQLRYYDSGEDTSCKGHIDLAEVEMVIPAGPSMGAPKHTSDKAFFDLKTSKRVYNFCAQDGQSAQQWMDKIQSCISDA
# UniProt Q8IZE3: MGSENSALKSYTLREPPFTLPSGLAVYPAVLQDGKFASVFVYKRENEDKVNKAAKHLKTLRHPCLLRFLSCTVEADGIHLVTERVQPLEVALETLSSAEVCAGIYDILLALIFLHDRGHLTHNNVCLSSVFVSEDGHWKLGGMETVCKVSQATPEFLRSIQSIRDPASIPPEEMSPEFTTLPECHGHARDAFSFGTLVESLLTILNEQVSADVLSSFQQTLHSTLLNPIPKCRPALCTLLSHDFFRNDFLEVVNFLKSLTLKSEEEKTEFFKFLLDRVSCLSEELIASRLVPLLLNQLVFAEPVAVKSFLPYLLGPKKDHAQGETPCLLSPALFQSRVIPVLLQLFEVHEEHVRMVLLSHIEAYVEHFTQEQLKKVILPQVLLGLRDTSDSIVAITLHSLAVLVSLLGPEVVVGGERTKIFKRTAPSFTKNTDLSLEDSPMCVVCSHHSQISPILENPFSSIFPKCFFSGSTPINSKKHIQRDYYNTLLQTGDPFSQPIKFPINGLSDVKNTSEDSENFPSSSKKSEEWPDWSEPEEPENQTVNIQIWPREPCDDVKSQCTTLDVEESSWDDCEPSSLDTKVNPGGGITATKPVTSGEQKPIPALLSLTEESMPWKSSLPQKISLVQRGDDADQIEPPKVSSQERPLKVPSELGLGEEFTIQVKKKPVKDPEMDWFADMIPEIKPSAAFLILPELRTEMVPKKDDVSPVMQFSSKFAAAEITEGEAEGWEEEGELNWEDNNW
# UniProt O14521: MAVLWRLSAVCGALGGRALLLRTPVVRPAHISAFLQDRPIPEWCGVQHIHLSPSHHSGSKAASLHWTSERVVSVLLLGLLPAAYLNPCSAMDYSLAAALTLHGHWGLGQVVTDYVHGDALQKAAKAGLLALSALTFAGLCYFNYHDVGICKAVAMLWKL
# UniProt Q96EU6: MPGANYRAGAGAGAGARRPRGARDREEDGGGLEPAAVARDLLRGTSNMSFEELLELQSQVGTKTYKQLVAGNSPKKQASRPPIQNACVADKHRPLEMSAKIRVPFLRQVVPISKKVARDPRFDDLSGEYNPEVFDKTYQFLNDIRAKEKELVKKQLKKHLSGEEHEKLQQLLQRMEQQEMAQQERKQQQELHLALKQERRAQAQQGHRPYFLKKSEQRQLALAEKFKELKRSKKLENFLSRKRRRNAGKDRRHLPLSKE
# UniProt Q96FQ6: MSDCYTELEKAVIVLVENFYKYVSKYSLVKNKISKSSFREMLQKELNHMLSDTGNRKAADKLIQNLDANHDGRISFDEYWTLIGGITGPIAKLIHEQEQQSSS
# UniProt O75056, whole entry, looked up: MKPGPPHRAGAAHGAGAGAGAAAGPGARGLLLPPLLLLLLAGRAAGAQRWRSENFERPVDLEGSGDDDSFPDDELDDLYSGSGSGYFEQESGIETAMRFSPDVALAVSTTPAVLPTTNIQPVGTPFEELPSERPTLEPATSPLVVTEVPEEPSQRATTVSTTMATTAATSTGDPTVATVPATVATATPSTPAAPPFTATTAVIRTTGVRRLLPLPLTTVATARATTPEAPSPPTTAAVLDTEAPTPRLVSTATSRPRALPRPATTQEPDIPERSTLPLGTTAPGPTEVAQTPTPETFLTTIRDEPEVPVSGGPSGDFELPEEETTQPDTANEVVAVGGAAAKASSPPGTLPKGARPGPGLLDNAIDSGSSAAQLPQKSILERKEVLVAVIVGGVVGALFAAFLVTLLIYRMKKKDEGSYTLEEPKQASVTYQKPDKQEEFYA
# UniProt O14828: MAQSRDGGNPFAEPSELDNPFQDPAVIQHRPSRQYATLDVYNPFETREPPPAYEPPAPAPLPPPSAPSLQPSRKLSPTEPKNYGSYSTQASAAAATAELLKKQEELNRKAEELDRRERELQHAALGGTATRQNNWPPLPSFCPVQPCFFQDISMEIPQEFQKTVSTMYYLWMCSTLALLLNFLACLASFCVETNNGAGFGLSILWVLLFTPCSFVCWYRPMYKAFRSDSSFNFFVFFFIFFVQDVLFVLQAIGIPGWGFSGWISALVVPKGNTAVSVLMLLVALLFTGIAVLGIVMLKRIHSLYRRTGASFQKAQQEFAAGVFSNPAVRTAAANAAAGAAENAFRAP
# UniProt A6ZKI3: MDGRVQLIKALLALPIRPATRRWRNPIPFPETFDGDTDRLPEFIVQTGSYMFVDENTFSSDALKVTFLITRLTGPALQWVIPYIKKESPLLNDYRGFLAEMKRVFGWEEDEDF
# UniProt Q9H0E3: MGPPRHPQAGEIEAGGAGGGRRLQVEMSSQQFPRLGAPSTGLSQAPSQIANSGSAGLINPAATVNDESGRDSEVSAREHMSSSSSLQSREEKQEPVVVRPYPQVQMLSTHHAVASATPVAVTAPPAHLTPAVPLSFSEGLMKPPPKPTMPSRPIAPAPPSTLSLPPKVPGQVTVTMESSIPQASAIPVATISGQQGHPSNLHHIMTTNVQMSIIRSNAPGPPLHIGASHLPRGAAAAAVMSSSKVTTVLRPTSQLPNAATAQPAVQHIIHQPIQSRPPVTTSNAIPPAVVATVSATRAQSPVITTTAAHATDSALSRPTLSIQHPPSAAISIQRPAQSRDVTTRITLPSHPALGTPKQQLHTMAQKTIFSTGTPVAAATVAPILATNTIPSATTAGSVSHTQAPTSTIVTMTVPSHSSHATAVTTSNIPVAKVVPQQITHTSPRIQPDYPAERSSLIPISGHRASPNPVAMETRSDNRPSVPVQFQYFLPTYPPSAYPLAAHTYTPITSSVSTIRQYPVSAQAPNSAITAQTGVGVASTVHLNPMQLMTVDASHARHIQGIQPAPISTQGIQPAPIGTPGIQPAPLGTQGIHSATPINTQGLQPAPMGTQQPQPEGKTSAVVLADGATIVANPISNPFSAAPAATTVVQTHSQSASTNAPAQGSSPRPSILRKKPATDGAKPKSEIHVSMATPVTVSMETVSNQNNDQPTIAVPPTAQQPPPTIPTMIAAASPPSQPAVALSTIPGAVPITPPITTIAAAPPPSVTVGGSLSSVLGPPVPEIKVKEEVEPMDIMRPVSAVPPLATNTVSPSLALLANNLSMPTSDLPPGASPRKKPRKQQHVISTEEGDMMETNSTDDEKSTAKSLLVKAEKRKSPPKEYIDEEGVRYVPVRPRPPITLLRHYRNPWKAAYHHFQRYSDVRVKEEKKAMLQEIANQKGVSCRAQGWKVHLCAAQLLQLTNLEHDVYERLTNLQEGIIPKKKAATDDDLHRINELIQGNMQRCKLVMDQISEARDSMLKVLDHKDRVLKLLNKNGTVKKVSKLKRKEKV
# UniProt P60903, whole entry, looked up: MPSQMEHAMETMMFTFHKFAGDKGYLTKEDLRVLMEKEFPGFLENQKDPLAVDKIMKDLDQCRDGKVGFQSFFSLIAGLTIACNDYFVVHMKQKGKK
# UniProt Q96IW7: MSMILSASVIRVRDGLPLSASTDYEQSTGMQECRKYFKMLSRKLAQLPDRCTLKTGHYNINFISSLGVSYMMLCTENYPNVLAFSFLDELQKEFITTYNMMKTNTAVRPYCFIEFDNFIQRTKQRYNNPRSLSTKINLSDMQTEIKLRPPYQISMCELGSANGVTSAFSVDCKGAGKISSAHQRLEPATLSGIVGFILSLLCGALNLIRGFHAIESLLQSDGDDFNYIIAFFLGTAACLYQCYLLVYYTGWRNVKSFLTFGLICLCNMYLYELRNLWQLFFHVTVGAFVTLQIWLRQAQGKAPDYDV
# The other results are listed elsewhere or left out.
# Compound: C[C@@H]1COCCN1C2=NC(=NC(=C2)C3(CC3)S(=O)(=O)C)C4=C5C=CNC5=CC=C4
# Test: log2 fold change, soluble protein after heating vs DMSO (PISA); higher = thermal stabilisation; K562 cells, 10 uM, 30 min; active = over 0.2 and 3.5 SD of the protein, either way, in both replicates (recomputed)
# Method in brief: (§1)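 Values are thermal stability changes relative to control samples and are taken from duplicates. They are stated as log2 fold changes. Before quantification by TMTpro 16plex LC-MS/MS with equalised channel sums, K562 cells at 2×10^6 cells/mL were treated with 10 μM compound for 30 min, heated in aliquots for 3 min across 48°C-58°C, pooled, extracted in PBS with 0.5% NP-40 at 4°C, and centrifuged at 21,000xg for 90 min to give the soluble supernatant.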
row,Target,log2 fold change
1,SDCBP isoform 2 (UniProt O00560),inactive: -0.108
2,SAMD4A (UniProt Q9UPU9),inactive: -0.015
3,SAFB2 (UniProt K7EQU4),inactive: 0.275
4,SCGB1D2 (UniProt O95969),inactive: 0.087
5,SBF2 (UniProt Q86WG5),inactive: -0.073
6,SCYL3 isoform 2 (UniProt Q8IZE3),inactive: -0.106
7,SCAMP2 (UniProt O15127),inactive: -0.213
8,SDHD (UniProt O14521),inactive: 0.244
9,"RTN4, A0A0U1RQR6",inactive: 0.134
10,RRP36 (UniProt Q96EU6),inactive: -0.645
11,RTN4 isoform 5 (UniProt Q9NQC3),inactive: -0.016
12,RTL10 (UniProt Q7L3V2),inactive: 0.045
13,SDF2 (UniProt Q99470),inactive: -0.128
14,S100A16 (UniProt Q96FQ6),inactive: -0.36
15,SCAI isoform 2 (UniProt Q8N9R8),inactive: 0.048
16,SDC3 (UniProt O75056),inactive: 0.057
17,RSL24D1 (UniProt Q9UHA3),inactive: -0.711
18,SCAMP3 isoform 2 (UniProt O14828),inactive: -0.05
19,RTL8C (UniProt A6ZKI3),inactive: -0.186

# Compound: C[C@H](C1=CC=C(C=C1)C(=O)NC2=C3C=CNC3=NC=C2)N
# Test: as above
# Method in brief: as §1
row,Target,log2 fold change
1,SAP130 isoform 3 (UniProt Q9H0E3),inactive: 0.062
2,SCGB1D2 (UniProt O95969),inactive: -0.295
3,SCYL3 isoform 2 (UniProt Q8IZE3),inactive: -0.044
4,SCAMP2 (UniProt O15127),active: -0.544
5,SDHD (UniProt O14521),inactive: 0.037
6,RRP36 (UniProt Q96EU6),inactive: 0.271
7,"SDHB, A0A087WXX8",inactive: 0.159
8,RTN4 isoform 5 (UniProt Q9NQC3),inactive: 0.008
9,RTL10 (UniProt Q7L3V2),inactive: -0.066
10,S100A2 (UniProt P29034),inactive: -0.075
11,SCRIB isoform 3 (UniProt Q14160),inactive: 0.316
12,S100A10 (UniProt P60903),inactive: 0.063
13,SCAI isoform 2 (UniProt Q8N9R8),inactive: 0.057
14,SEC22A (UniProt Q96IW7),inactive: -0.013
15,SDC3 (UniProt O75056),inactive: 0.151
